In experiment [1] the target is VPS28-Myc (VPS28 transcript NM_016208.3 fused to a Myc tag at the C-terminus) (UniProt Q9UK41). Kind of experiment: co-immunoprecipitation, HEK293T lysate, Western blot.
Experiment [2] shares this target. Kind of experiment: co-immunoprecipitation with anti-HA or anti-Myc antibodies, HEK293T lysate, Western blot.

Chains of the proteins cited; added tags and fusions are not shown.
UniProt Q9UK41: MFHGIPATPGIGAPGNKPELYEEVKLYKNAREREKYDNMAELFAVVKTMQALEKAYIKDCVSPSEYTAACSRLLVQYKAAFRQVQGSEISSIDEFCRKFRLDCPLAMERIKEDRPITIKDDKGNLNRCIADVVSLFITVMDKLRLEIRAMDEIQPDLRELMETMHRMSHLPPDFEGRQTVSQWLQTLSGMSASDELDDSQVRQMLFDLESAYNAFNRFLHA

No constants are given. Whether binding was seen depends on the method and setting. Binding seen in cells or lysates may run through a third protein. Some results given as binding are weak or reduced against the parent protein; the word gives no strength. Sequences can lack the tags named with a protein.

Results on 1 molecule are retold here after patent US20220177527A1.

B1: HA-WT-UBAP1 (wild-type Ubiquitin Associated Protein 1, transcript 1 NM_016525.4, fused with a 3x-HA tag at the N-terminus) (protein, not shown: small tags and cut ends)
chain: MASKKLGADFHGTFSYLDDVPFKTGDKFKTPAKVGLPIGFSLPDCLQVVREVQYDFSLEKKTIEWAEEIKKIEEAEREAERKIAEAEAKVNSKSGPEGDSKMSFSKTHSTATMPPPINPILASLQHNSILTPTRVSSSATKQKVLSPPHIKADFNLADFECEEDPFDNLELKTIDEKEELRNILVGTTGPIMAQLLDNNLPRGGSGSVLQDEEVLASLERATLDFKPLHKPNGFITLPQLGNCEKMSLSSKVSLPPIPAVSNIKSLSFPKLDSDDSNQKTAKLASTFHSTSCLRNGTFQNSLKPSTQSSASELNGHHTLGLSALNLDSGTEMPALTSSQMPSLSVLSVCTEESSPPNTGPTVTPPNFSVSQVPNMPSCPQAYSELQMLSPSERQCVETVVNMGYSYECVLRAMKKKGENIEQILDYLFAHGQLCEKGFDPLLVEEALEMHQCSEEKMMEFLQLMSKFKEMGFELKDIKEVLLLHNNDQDNALEDLMARAGAS
In the case of B1, the binding entry in experiment [1] and in experiment [2] was “binds” in each case.
